The source of these data is publication PMC11555707, “Histone deacetylase 7 activates 6-phosphogluconate dehydrogenase via an enzyme-independent mechanism that involves the N-terminal protein-protein interaction domain” (Biochemical Journal, 2024).

The chains behind the UniProt entries cited, without tags or fusion partners. Where a name states a change or a piece, a line headed by the entry shows the natural chain unless it says otherwise.
UniProt Q8C2B3: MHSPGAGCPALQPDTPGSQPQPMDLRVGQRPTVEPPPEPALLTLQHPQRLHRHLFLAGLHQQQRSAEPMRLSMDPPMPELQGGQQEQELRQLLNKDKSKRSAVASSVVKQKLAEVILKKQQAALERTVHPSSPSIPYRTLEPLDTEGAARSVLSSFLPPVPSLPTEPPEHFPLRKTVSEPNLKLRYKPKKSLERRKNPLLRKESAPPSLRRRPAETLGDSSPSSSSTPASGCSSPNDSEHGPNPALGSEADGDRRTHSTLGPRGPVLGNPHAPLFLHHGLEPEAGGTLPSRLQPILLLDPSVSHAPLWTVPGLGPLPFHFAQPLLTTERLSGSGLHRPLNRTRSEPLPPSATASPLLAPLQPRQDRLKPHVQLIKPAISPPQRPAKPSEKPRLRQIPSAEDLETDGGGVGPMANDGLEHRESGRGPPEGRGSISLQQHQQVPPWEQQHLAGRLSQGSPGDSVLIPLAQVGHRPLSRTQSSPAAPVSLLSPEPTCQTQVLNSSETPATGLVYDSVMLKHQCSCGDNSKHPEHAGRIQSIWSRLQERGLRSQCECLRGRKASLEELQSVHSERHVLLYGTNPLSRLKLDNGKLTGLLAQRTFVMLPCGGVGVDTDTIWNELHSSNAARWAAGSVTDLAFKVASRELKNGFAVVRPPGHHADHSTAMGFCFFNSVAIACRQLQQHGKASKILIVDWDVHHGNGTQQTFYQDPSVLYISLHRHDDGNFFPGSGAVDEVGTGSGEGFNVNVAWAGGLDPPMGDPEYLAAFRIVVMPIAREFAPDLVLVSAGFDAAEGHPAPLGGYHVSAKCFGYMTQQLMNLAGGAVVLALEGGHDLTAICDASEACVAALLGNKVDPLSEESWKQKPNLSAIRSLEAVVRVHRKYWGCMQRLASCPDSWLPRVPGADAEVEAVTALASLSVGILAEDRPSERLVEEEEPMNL

No constants are given. Whether binding was seen depends on the method and setting. Binding seen in cells or lysates may run through a third protein. Binding can be weak; no strength is given. Where a sequence is shown, tags or fusion partners need not be part of it.

For assay [1], the target named is T1, 6-phosphogluconate dehydrogenase (6PGD), Flag-tagged (mouse) (UniProt Q9DCD0).
T1 sequence: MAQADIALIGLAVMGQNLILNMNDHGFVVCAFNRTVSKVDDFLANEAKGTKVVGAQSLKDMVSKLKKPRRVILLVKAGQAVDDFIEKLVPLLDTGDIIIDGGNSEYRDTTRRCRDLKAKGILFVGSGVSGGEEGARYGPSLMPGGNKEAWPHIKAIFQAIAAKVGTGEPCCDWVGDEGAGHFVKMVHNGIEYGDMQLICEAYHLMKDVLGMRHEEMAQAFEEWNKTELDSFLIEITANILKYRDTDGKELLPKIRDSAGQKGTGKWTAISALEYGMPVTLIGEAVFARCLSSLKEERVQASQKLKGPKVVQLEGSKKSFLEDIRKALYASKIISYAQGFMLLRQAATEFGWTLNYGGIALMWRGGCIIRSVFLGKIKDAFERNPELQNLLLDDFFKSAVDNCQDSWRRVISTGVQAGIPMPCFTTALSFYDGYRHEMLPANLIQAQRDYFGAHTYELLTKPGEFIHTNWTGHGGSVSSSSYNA
Put plainly: co-IP; HEK293 cells co-transfected 1:1 (6PGD:HDAC or SOX7) for 24 h; lysed in RIPA or mild lysis buffer; lysates immunoprecipitated with anti-Flag (6PGD as bait) and Dynabeads Protein G; immunoblot with anti-V5 and anti-Flag.

Assay [2] has as its target Histone deacetylase 7 enzyme-dead mutant (H649A), V5-tagged (mouse). Nature of the assay: co-IP; HEK293 cells co-transfected 1:1 (6PGD:HDAC) for 24 h; lysed in RIPA or mild lysis buffer; lysates immunoprecipitated with anti-V5 (HDAC as bait) and Dynabeads Protein G; immunoblot with anti-Flag and anti-V5.

“C-terminal domain of HDAC7 (amino acid residues 498-938), V5-tagged (mouse) (domain or fragment)”: the binding entry in assay [1] is listed as “binds”. In the case of “Histone deacetylase 7 enzyme-dead mutant (H649A), V5-tagged (mouse)”, the binding entry in assay [1] is recorded as “binds”.

Regarding “N-terminal domain of HDAC7 (amino acids 23-504), V5-tagged (from UniProt Q8C2B3) (domain or fragment)”, the binding entry in assay [1] is “binds”.

B1: 6-phosphogluconate dehydrogenase (6PGD), Flag-tagged (enzyme, mouse, UniProt Q9DCD0 1-483, looked up)
chain: T1 sequence
notes: mouse 6-phosphogluconate dehydrogenase (6PGD); A shorter ~40 kDa form (6PGD-s), also detected by anti-Flag, arises in the same cells; also called full-length 6PGD; source: HEK293, transfected (pCMV-based construct), in lysate
B1: in assay [2], the binding entry is “binds”.
